Results as given in PubChem BioAssay (EPA / NIEHS).
This list was built around the results that the source calls inconclusive (neither active nor inactive); the mix of calls is not that of the screen. Potencies beside an inconclusive call are fits to weak or partial responses and may not hold up. Active and inactive are the calls of the source. The calls were made as follows: active = hit-call score of the fitted dose curve at least 0.9, where 1 is the maximum; inconclusive = response in the unintended direction; inactive = score below 0.9.

These compounds were tested against human Phosphodiesterase 5 (PDE5), PDE5A (gene 8654) (UniProt O76074) (assay: NVS_ENZ_hPDE5: NovaScreen (NVS) Enzymatic Assay for human Phosphodiesterase 5 (PDE5) (AID 2283194)).
Protocol: NVS_ENZ_hPDE5 is a biochemical, single-readout assay that uses extracted gene-proteins in a cell-free assay. Measurements were taken 1 hour after chemical dosing in a 384-well plate.NVS_ENZ_hPDE5 is one of one assay component(s) measured or calculated from the NVS_ENZ_hPDE5 assay. It is designed to make measurements of enzyme activity, a form of enzyme reporter, as detected with fluorescence intensity signals by Fluorescence and electrophoretic mobility shift technology.Data from the assay component NVS_ENZ_hPDE5 was analyzed into 1 assay endpoint. This assay endpoint, NVS_ENZ_hPDE5, was analyzed in the positive analysis fitting direction relative to DMSO as the negative control and baseline of activity. Using a type of enzyme reporter, loss-of-signal activity can be used to understand changes in the enzymatic activity as they relate to the gene PDE5A. Furthermore, this assay endpoint can be referred to as a primary readout, because this assay has produced multiple assay endpoints where this one serves a enzymatic activity function. To generalize the intended target to other relatable targets, this assay endpoint is annotated to the esterase intended target family, where the subfamily is phosphodiesterase.
Binding assays used specific radioligands (tritiated, iodinated) with non-radioactive competitive displacement ligands in agonist or antagonist protocols (as indicated) and various reference compounds and inhibitors to titrate specific binding to receptors and transporters. Most enzyme assays (CYPs, kinases, phosphatases, proteases, HDACs) used recombinant protein and specific substrates (fluorescence mostly, some colorimetric and radioactive) and inhibitors, followed by a biochemical separation of substrate and product. All assays for the biochemical HTS were initially run in duplicate at a single concentration (10 uM for CYP450 assays and 25 uM for all others). […] Each assay was run with positive and negative controls, and concurrent controls on every plate. The follow-up (secondary) screen tested active chemical-pairs in concentration series, as well as a few additional assays not tested in the primary screen, some selected negative inactives, and several cases re-run in the concentration series for confirmatory purposes.
`COCC(C)OCC(C)O` (stereo not given) was tested, and the AC50 was inconclusive: 25 µM.
For `Cn1c(=O)cc(Oc2ccc(F)cc2F)c2cnc(NCC(C)(C)O)nc21`, the AC50 was active: 12.4 µM.
For `Nc1ccccc1N`, the AC50 was active: 18.1 µM.
In the case of `CC(C)CCCCCCCOC(=O)CCCCC(=O)OCCCCCCCC(C)C`, the AC50 is reported as inconclusive: 0.713 µM.
`Cc1occc(=O)c1O` was tested, and the AC50 was inconclusive: 26 µM.
With `Cc1cc(F)ccc1-c1cc(N2CC[C@@H](O)[C@H]2CO)ncc1N(C)C(=O)C(C)(C)c1cc(C(F)(F)F)cc(C(F)(F)F)c1` the AC50 was active: 4.05 µM.
With `COc1cc(C(C)C)c2c(c1)S(=O)(=O)N(COc1cc(=O)n3cccc(OCCN4CCCCC4)c3n1)C2=O` the AC50 was inconclusive: 1.51 µM.
`CC(C)(C)c1cccc(C(C)(C)C)c1O` was tested, and the AC50 was inconclusive: 25 µM.
In the case of `FC(F)(F)C(F)(F)C(F)(F)C(F)(F)C(F)(F)C(F)(F)CCI`, the AC50 is reported as active: 19.7 µM.
`Cc1nc(-c2ccccn2)ncc1C(=O)Nn1cc(C)c2cc(F)ccc21` was tested, and the outcome was “inactive”.
With `CN(C)C=O` the AC50 was inconclusive: 25 µM.
With `CCCN(CCC)C(=O)SCC` the AC50 was inconclusive: 0.104 µM.
For `OCc1ccccc1`, the AC50 was inconclusive: 25 µM.
With `O=C(N[C@@H](Cc1ccccc1)[C@@H](O)C(=O)N1C[C@@H](O)[C@@H](O)C1)c1cc2cc(Cl)ccc2[nH]1` the outcome was “inactive”.
`NC(N)=O` was tested, and the AC50 was inconclusive: 44.8 µM.
